The list is a part of this screen's results and no random one: it is rich in T/C values a quarter to a half above the control, in often repeated tests (any T/C) and in doses without a T/C. Further doses and runs are listed elsewhere. T/C is the treated group as % of the vehicle group. Some entries give survivors of the animals treated and no T/C: the source holds a T/C of zero for them, seemingly a mark for toxic or unscored doses. Some doses without a T/C left all or most animals alive at the check, yet need not have been tolerated: survival well below the control is almost never listed, so the zero probably covers shortened survival too. Survivors were counted at the toxicity check, usually on the fifth day, unless a day is given; later deaths do not show. Schedule codes are those of the source, read here as Q, the interval in days (D) or hours (H), X, the number of doses. Some entries hold several experiments; the results are listed from low to high. For survival time, the PubChem record calls one and a half times the control and up active, and a quarter to a half above the control has no call in these data; cut-offs in other NCI protocols can differ. Some T/C values are followed by the survivors on the day toxicity was checked, most often the fifth; where none is given, no animal had died by that day. Additions like (4×) say how often a value occurs here.
Test system: BDF1 mice, P388 leukemia ip, median survival T/C
Assay: NCI In Vivo Anticancer Drug Screen. Data for tumor model P388 Leukemia (intraperitoneal) in B6D2F1 (BDF1) mice
Conditions: T/C endpoint: median survival time, higher T/C = longer survival
In short: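 Transplantable tumour in mice; compound vs vehicle dosing; survival scored; ratio of treated to control reported.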

[1] = dose: 50.0 mg/kg/injection, schedule: Q01DX005 (ip), vehicle: saline with Tween-80
[2] = dose: 50.0 mg/kg/injection, schedule: Q01DX009 (ip), vehicle: saline with Tween-80
[3] = dose: 50.0 mg/kg/injection, schedule: Q04DX002 (ip), vehicle: saline with Tween-80
[4] = dose: 50.0 mg/kg/injection, schedule: Q04DX003 (ip), vehicle: saline with Tween-80
[5] = dose: 100.0 mg/kg/injection, schedule: Q01DX001 (ip), vehicle: saline with Tween-80
[6] = dose: 100.0 mg/kg/injection, schedule: Q01DX005 (ip), vehicle: saline with Tween-80
[7] = dose: 100.0 mg/kg/injection, schedule: Q01DX009 (ip), vehicle: saline with Tween-80
[8] = dose: 100.0 mg/kg/injection, schedule: Q04DX002 (ip), vehicle: saline with Tween-80
[9] = dose: 100.0 mg/kg/injection, schedule: Q04DX003 (ip), vehicle: saline with Tween-80
[10] = dose: 200.0 mg/kg/injection, schedule: Q01DX001 (ip), vehicle: saline with Tween-80
[11] = dose: 200.0 mg/kg/injection, schedule: Q01DX005 (ip), vehicle: saline with Tween-80
[12] = dose: 200.0 mg/kg/injection, schedule: Q01DX009 (ip), vehicle: saline with Tween-80
[13] = dose: 200.0 mg/kg/injection, schedule: Q04DX002 (ip), vehicle: saline with Tween-80
[14] = dose: 200.0 mg/kg/injection, schedule: Q04DX003 (ip), vehicle: saline with Tween-80
[15] = dose: 400.0 mg/kg/injection, schedule: Q01DX001 (ip), vehicle: saline with Tween-80
[16] = dose: 400.0 mg/kg/injection, schedule: Q01DX005 (ip), vehicle: saline with Tween-80
[17] = dose: 400.0 mg/kg/injection, schedule: Q01DX009 (ip), vehicle: saline with Tween-80
[18] = dose: 400.0 mg/kg/injection, schedule: Q04DX002 (ip), vehicle: saline with Tween-80
[19] = dose: 400.0 mg/kg/injection, schedule: Q04DX003 (ip), vehicle: saline with Tween-80

## CC/C(=C(/CC)c1ccc(O)cc1)c1ccc(O)cc1
dose: 25.0 mg/kg/injection, schedule: Q01DX010 (ip), vehicle: saline
  survivor count: 6 of 6
dose: 50.0 mg/kg/injection, schedule: Q01DX001 (ip), vehicle: saline with Tween-80
  T/C: 87, 88, 89, 90, 91, 92 (2×), 94, 95 (2×), 96 (3×), 97, 99, 100 (2×), 102 (2×), 103, 104 (2×), 105, 106, 106 [5 of 6 alive], 109, 110, 120 % of control
[1]
  T/C: 88 [5 of 6 alive], 89 [2 of 2 alive], 90, 97 (2×), 98 (2×), 99 (2×), 100, 101 (2×), 102, 103 (2×), 105 (2×), 106, 107 (3×), 108 (2×), 109, 110, 113 (2×), 115, 119 (2×), 120, 125, 128, 132 % of control
  survivor count: 3 of 3
dose: 50.0 mg/kg/injection, schedule: Q01DX009 (ip), vehicle: carboxymethylcellulose (CMC)
  survivor count: 7 of 10
[2]
  T/C: 87, 88, 92, 93, 93 [5 of 6 alive], 94, 97 (3×), 97 [5 of 6 alive], 99 [2 of 3 alive], 100, 101 (2×), 102, 103, 104, 105, 106 (2×), 107, 109, 110 (2×), 111, 115 (3×), 123 (2×), 124, 131 % of control
  survivor count: 3 of 3
[3]
  T/C: 87 (2×), 88, 91 (3×), 94, 95, 96 (2×), 97 (2×), 98, 100 (2×), 100 [5 of 6 alive], 101, 102 (2×), 103 (2×), 106 (3×), 107, 108, 109 (2×), 113, 115, 116 % of control
  survivor count: 3 of 3 and 6 of 6
[4]
  T/C: 87, 90 (2×), 91 (2×), 94 (2×), 95, 96 (3×), 98 (2×), 99, 100 (2×), 101 (3×), 102 (2×), 103 (2×), 104, 105, 106 (2×), 108, 109, 111, 115, 118, 121 % of control
  survivor count: 3 of 3 and 6 of 6
[5]
  T/C: 87, 89, 90, 90 [5 of 6 alive], 91 (4×), 92, 93, 94 (2×), 96, 97, 98, 100, 101 (4×), 102, 103, 104, 105, 107, 109 % of control
  survivor count: 6 of 6
[6]
  T/C: 89, 90, 93 (2×), 95 (2×), 97 (2×), 99 (2×), 100, 102, 103 (2×), 106, 107 (2×), 108, 109 [5 of 6 alive], 110 (3×), 111, 112, 114 (3×), 115 (2×), 117, 119, 123 (2×), 125 % of control
  survivor count: 6 of 6
[7]
  T/C: 87, 89, 94, 94 [5 of 6 alive], 95 (2×), 97, 99 (2×), 100 (2×), 100 [5 of 6 alive], 101, 103, 104 [5 of 6 alive], 106 (3×), 108, 110, 111, 112, 113, 118, 121, 122, 123 (2×), 128, 131 (2×), 134 % of control
  survivor count: 3 of 3 and 6 of 6
[8]
  T/C: 87 (2×), 89, 91 (3×), 94 (2×), 95, 96, 97, 98, 100 (5×), 101 (2×), 102, 103, 106 (2×), 108, 109, 112 (3×), 119, 121, 125, 130 % of control
  survivor count: 1 of 3 and 6 of 6
[9]
  T/C: 87, 88 (2×), 92 (2×), 93 (2×), 94, 95, 96 (2×), 98 (2×), 99 (2×), 100 (2×), 101 (2×), 103 (2×), 104, 105 (4×), 108 (2×), 109, 110, 110 [5 of 6 alive], 111, 115, 118 % of control
  survivor count: 3 of 3 and 6 of 6
[10]
  T/C: 90, 91 (3×), 92, 92 [5 of 6 alive], 93, 94, 96, 97 (2×), 99, 101 (2×), 102, 103, 104, 105, 106, 107, 108 (2×), 110 [5 of 6 alive], 111, 116 (2×), 120 % of control
  survivor count: 5 of 6
[11]
  T/C: 92, 94 (2×), 95, 97, 98 (4×), 99 [2 of 3 alive], 99 [5 of 6 alive], 100 (2×), 103 (2×), 105, 107, 108 (2×), 109 (2×), 110, 111, 115 [4 of 5 alive], 115 [5 of 6 alive], 119, 119 [5 of 6 alive], 121, 123, 128 [2 of 3 alive], 134, 146 % of control
  survivor count: 3 of 6, 4 of 6, 3 of 3
[12]
  T/C: 88 (2×), 90 [2 of 3 alive], 90 [5 of 6 alive], 94 (2×), 95 (2×), 97, 99, 101 (2×), 102, 105, 106, 106 [2 of 3 alive], 106 [5 of 6 alive], 109, 110 [5 of 6 alive], 111, 112 [5 of 6 alive], 113, 114, 117, 119 (2×), 121, 122 [5 of 6 alive], 123, 126 [5 of 6 alive], 131, 131 % of control [5 of 6 alive]
  survivor count: 4 of 6 and 3 of 3
[13]
  T/C: 87 (2×), 90, 91 [5 of 6 alive], 92, 93, 94 (2×), 94 [5 of 6 alive], 96, 97 (3×), 98 (2×), 99, 100, 100 [5 of 6 alive], 103 (2×), 106, 108, 109, 111, 112 (2×), 115 (2×), 118, 119, 122, 122 % of control [5 of 6 alive]
  survivor count: 3 of 3 and 6 of 6
[14]
  T/C: 86, 87, 90, 90 [5 of 6 alive], 91, 94, 95, 96, 97, 98 (2×), 99 (3×), 100 (2×), 103 (2×), 104, 105 (2×), 105 [5 of 6 alive], 106, 107 [5 of 6 alive], 109, 109 [5 of 6 alive], 112, 121 (2×), 123, 125 % of control
  survivor count: 3 of 3 and 6 of 6
[15]
  T/C: 87 [5 of 6 alive], 88, 89, 91 (2×), 92, 95 (2×), 95 [4 of 6 alive], 96, 100 (2×), 100 [5 of 6 alive], 101, 101 [5 of 6 alive], 102 [2 of 3 alive], 102 [5 of 6 alive] (2×), 103, 106, 108 [4 of 6 alive], 110 [2 of 3 alive], 117 % of control
  survivor count: 1 of 6, 1 of 3, 2 of 6, 5 of 6
[16]
  T/C: 91, 96 [4 of 6 alive], 98 [5 of 6 alive], 99, 100, 100 [4 of 6 alive], 100 [5 of 6 alive], 103 [5 of 6 alive], 104, 106, 109 [4 of 6 alive], 113, 114 [4 of 6 alive], 115 [5 of 6 alive], 116 [2 of 3 alive] (2×), 118 [5 of 6 alive], 119 [5 of 6 alive], 120 [2 of 3 alive], 131 % of control
  survivor count: 0 of 3, 0 of 6, 1 of 6, 1 of 3, 3 of 6, 2 of 3
dose: 400.0 mg/kg/injection, schedule: Q01DX008 (ip), vehicle: saline with Tween-80
  T/C: 138 % of control [2 of 3 alive]
dose: 400.0 mg/kg/injection, schedule: Q01DX009 (ip), vehicle: carboxymethylcellulose (CMC)
  survivor count: 10 of 10
[17]
  T/C: 95, 97 [4 of 6 alive], 98 [2 of 3 alive], 99, 99 [4 of 6 alive], 106 [2 of 3 alive], 108, 113, 114, 135 % of control [4 of 6 alive]
  survivor count: 0 of 3, 0 of 6, 1 of 6, 1 of 3, 2 of 6, 3 of 6, 2 of 3, 4 of 6, 5 of 6, 3 of 3, 6 of 6
[18]
  T/C: 88 [4 of 6 alive], 94, 100 [5 of 6 alive], 102 [2 of 3 alive], 103 [4 of 6 alive], 103 [5 of 6 alive], 104, 105, 106, 107 (2×), 108, 109 (2×), 109 [2 of 3 alive], 111, 118 [5 of 6 alive], 119, 119 [5 of 6 alive], 122 [4 of 6 alive], 125 % of control [2 of 3 alive]
  survivor count: 0 of 3, 0 of 6, 1 of 3, 3 of 6, 2 of 3, 4 of 6, 5 of 6, 6 of 6
[19]
  T/C: 91 (2×), 92 [5 of 6 alive], 94, 94 [5 of 6 alive] (2×), 99, 100 (3×), 100 [5 of 6 alive], 102, 103, 104 (2×), 105, 107, 110, 114, 125, 135 % of control
  survivor count: 0 of 3, 1 of 3, 2 of 6, 3 of 6, 2 of 3, 3 of 3, 6 of 6
